The text below walks through data of the supplement of paper PMC11409438.

The structures appear in SMILES notation. Structures can show the parent of a compound that is named as a salt. Some of the results follow. Repeats are few or missing, and single values can be far off.

The test system of the first experiment is Caenorhabditis elegans ST65 (ncIs13[ajm-1::GFP]). Description: 'Larvae/adult' ratio (MetaXpress pharynx counts; minimum value 1, so it appears to include adults; growth inhibition read-out). As to conditions: 10 µM; exposure time: 4-5 days from L1 at 20°C.
On to `NC1(c2ccc(-c3nc4ccn5c(=O)[nH]nc5c4cc3-c3ccccc3)cc2)CCC1`, for which the “'Larvae/adult' ratio” value was 2.
For the compound `O=C1c2c(O)ccc(O)c2C(=O)c2c(NCCNCCO)ccc(NCCNCCO)c21` [Mitoxantrone 2HCl], the “'Larvae/adult' ratio” value was found to be 1.73.
As for `Cn1cc(-c2cnn3c(N)c(Br)c([C@@H]4CCCNC4)nc23)cn1`, the “'Larvae/adult' ratio” value is 2.52.
Still for that read-out and setting: under `O=C(c1cccc(Cl)c1F)N1CCN(Cc2cccc(Nc3nccs3)n2)CC1` stands 2.03; under `CC1=C(/C=C/C(C)=C/C=C/C(C)=C/C(=O)O)C(C)(C)CCC1` [Tretinoin], 3.25.
The same measure, in the same setting: under `CONC(=O)c1ccccc1Nc1cc(Nc2cc(C)nn2C(C)C)ncc1Cl` stands 1.76; under `COc1cc(OC)cc(N(CCNC(C)C)c2ccc3ncc(-c4cnn(C)c4)nc3c2)c1`, 4.5.
For the compound `CCS(=O)(=O)c1cccc(-c2cc(C(=O)NC3CCN(C)CC3)c(C)c3[nH]c4ncc(C)cc4c23)c1`, the “'Larvae/adult' ratio” value came out at 1.79.
Still for that read-out and setting: with `O=C(/C=C\n1cnc(-c2cc(C(F)(F)F)cc(C(F)(F)F)c2)n1)NNc1ccccn1` [Verdinexor (KPT-335)] the figure was 6.18.
Same read-out and setting: with `CC(C)C(=O)Nc1ccc([N+](=O)[O-])c(C(F)(F)F)c1` [Flutamide] the figure was 5; with `Nc1cc(F)ccc1NC(=O)/C=C/c1cnn(C/C=C/c2ccccc2)c1`, 1.57.
On the same count and under the same terms, with `CCN(CC)CCNC(=O)c1c(C)[nH]c(/C=C2\C(=O)Nc3ccc(-c4csc(-c5ccccc5)n4)cc32)c1C` [Amcasertib (BBI503)] the figure was 4.58.
For the compound `O=C(NCc1ccncc1)C12CC3CC(C1)CC(c1ccc(Cl)cc1)(C3)C2`, the “'Larvae/adult' ratio” value was determined as 5.89.
`C=C(c1ccc(C(=O)O)cc1)c1cc2c(cc1C)C(C)(C)CCC2(C)C` [Bexarotene]: the “'Larvae/adult' ratio” value is 1.75.

A further experiment shares this test system. As to the kind of experiment: vulvae per adult worm (MAPK/ERK-dependent vulval induction, MetaXpress) (vulvae/adult); higher = more vulval induction (less MAPK/ERK inhibition). As to conditions: 10 µM; exposure time: 4-5 days from L1 at 20°C.
For `CN(C)C(=N)NC(=N)N` [Metformin HCl], the “vulvae per adult worm” value was 1.
Consider `O=C(/C=C/c1cccc(S(=O)(=O)Nc2ccccc2)c1)NO` [Belinostat (PXD101)], for which the “vulvae per adult worm” value turned out to be 0.889.
Still for that read-out and setting: under `Cc1cc(Nc2ncc(Cl)c(Nc3ccccc3S(=O)(=O)C(C)C)n2)c(OC(C)C)cc1C1CCNCC1` [Ceritinib (LDK378)] stands 0.825.
On the same count and under the same terms, under `CCCS(=O)(=O)Nc1ccc(F)c(C(=O)c2c[nH]c3ncc(-c4ccc(Cl)cc4)cc23)c1F` [Vemurafenib (PLX4032, RG7204)] stands 0.972.
The same measure, in the same setting: under `Nc1nc2[nH]cc(CCc3ccc(C(=O)N[C@@H](CCC(=O)O)C(=O)O)cc3)c2c(=O)[nH]1` [Pemetrexed] stands 0.947.
Turning to `CC(C)NC[C@@H](C(=O)N1CCN(c2ncnc3c2[C@H](C)C[C@H]3O)CC1)c1ccc(Cl)cc1` [Ipatasertib (GDC-0068)], the “vulvae per adult worm” value was found to be 1.
As to `CCn1cc(-c2ccnc3[nH]c(-c4cccc(CN(C)C)c4)cc23)c(-c2ccc(NC(=O)N(C)C)cc2)n1`, the “vulvae per adult worm” value was determined as 0.703.
Still for that read-out and setting: under `CN(C)CCOc1ccc(/C(=C(/CCCl)c2ccccc2)c2ccccc2)cc1` [Toremifene Citrate] stands 1.3.
Still for that read-out and setting: under `CC(C)(C)c1cc(NC(=O)Nc2ccc(Oc3ccnc4[nH]c(=O)cnc34)cc2F)n(-c2ccccc2)n1` stands 1.03; under `CC1(C)OCCn2c1nc1c(N3CCOCC3)nc(-c3cnc(N)nc3)nc12`, 0.971; under `COc1cc2nccc(Oc3ccc(NC(=O)NC4CC4)c(Cl)c3)c2cc1C(N)=O` [Lenvatinib (E7080)], 0.56.
Same read-out and setting: under `CN1CCC(COc2cnc(-c3cccc(Cn4nc(-c5cccc(C#N)c5)ccc4=O)c3)nc2)CC1` stands 1.52; under `COc1cc(C)c(/C=C/C(C)=C/C=C/C(C)=C/C(=O)O)c(C)c1C` [Acitretin], 0.586.
For `Nc1nc(NC2CC2)cc(-c2cccc(Cl)c2Cl)n1`, the “vulvae per adult worm” value is 1.5.
Regarding `O=C(CCCCCCNC(=O)c1cnc(N(c2ccccc2)c2ccccc2)nc1)NO` [Ricolinostat (ACY-1215)], the “vulvae per adult worm” value came to 1.04.
As to `CN1CCc2c(c3ccccc3n2Cc2ccc(C(=O)NO)cc2)C1` [Tubastatin A], the “vulvae per adult worm” value amounted to 1.02.
On the same count and under the same terms, under `CC(C)c1cc(-c2n[nH]c(=O)n2-c2ccc3c(ccn3C)c2)c(O)cc1O` [Ganetespib (STA-9090)] stands 0.909; under `Cc1ccc(-c2cc(C(F)(F)F)nn2-c2ccc(S(N)(=O)=O)cc2)cc1` [Celecoxib], 0.692; under `C[C@@H]1COC(Nc2ccc3ncnc(Nc4ccc(OCc5nccs5)c(Cl)c4)c3c2)=N1` [Varlitinib], 0.452.
The same measure, in the same setting: under `O=C(c1ccc(C(=O)N2CCC(N3CCCC3)CC2)c(Nc2ccccc2)c1)N1CCC(N2CCCC2)CC1` stands 1.33.
On the same count and under the same terms, under `CC(C)(O)CC(=O)NCCn1ccc2ncnc(Nc3ccc(Oc4cccc(C(F)(F)F)c4)c(Cl)c3)c21` stands 0.462.
As to `COc1cc([C@@H]2c3cc4c(cc3[C@@H](O[C@@H]3O[C@@H]5CO[C@@H](c6cccs6)O[C@H]5[C@H](O)[C@H]3O)[C@H]3COC(=O)[C@H]23)OCO4)cc(OC)c1O` [Teniposide], the “vulvae per adult worm” value worked out at 1.08.
Same read-out and setting: with `Cc1ccc(C(=O)Nc2ccc(CN3CCN(C)CC3)c(C(F)(F)F)c2)cc1C#Cc1cnc2cccnn12` the figure was 0.2.
The same measure, in the same setting: with `O=C(O)C(=O)O.[NH-][C@@H]1CCCC[C@H]1[NH-].[Pt+2]` [Oxaliplatin] the figure was 0.6; with `NC1(c2ccc(-c3nc4ccn5c(=O)[nH]nc5c4cc3-c3ccccc3)cc2)CCC1`, 1.03.
The same measure, in the same setting: with `O=C1c2c(O)ccc(O)c2C(=O)c2c(NCCNCCO)ccc(NCCNCCO)c21` [Mitoxantrone 2HCl] the figure was 0.867.
For the compound `Cn1cc(-c2cnn3c(N)c(Br)c([C@@H]4CCCNC4)nc23)cn1`, the “vulvae per adult worm” value turned out to be 0.976.
Still for that read-out and setting: with `O=C(c1cccc(Cl)c1F)N1CCN(Cc2cccc(Nc3nccs3)n2)CC1` the figure was 0.667.
Same read-out and setting: with `CC1=C(/C=C/C(C)=C/C=C/C(C)=C/C(=O)O)C(C)(C)CCC1` [Tretinoin] the figure was 0.75; with `CONC(=O)c1ccccc1Nc1cc(Nc2cc(C)nn2C(C)C)ncc1Cl`, 0.882.
Consider `COc1cc(OC)cc(N(CCNC(C)C)c2ccc3ncc(-c4cnn(C)c4)nc3c2)c1`, for which the “vulvae per adult worm” value came out at 1.
Take `CCS(=O)(=O)c1cccc(-c2cc(C(=O)NC3CCN(C)CC3)c(C)c3[nH]c4ncc(C)cc4c23)c1`: the “vulvae per adult worm” value was 1.06.
The same measure, in the same setting: under `O=C(/C=C\n1cnc(-c2cc(C(F)(F)F)cc(C(F)(F)F)c2)n1)NNc1ccccn1` [Verdinexor (KPT-335)] stands 0.545.
On the same count and under the same terms, with `CC(C)C(=O)Nc1ccc([N+](=O)[O-])c(C(F)(F)F)c1` [Flutamide] the figure was 0.857; with `Nc1cc(F)ccc1NC(=O)/C=C/c1cnn(C/C=C/c2ccccc2)c1`, 0.955; with `CCN(CC)CCNC(=O)c1c(C)[nH]c(/C=C2\C(=O)Nc3ccc(-c4csc(-c5ccccc5)n4)cc32)c1C` [Amcasertib (BBI503)], 1.
The same measure, in the same setting: with `O=C(NCc1ccncc1)C12CC3CC(C1)CC(c1ccc(Cl)cc1)(C3)C2` the figure was 0.
`C=C(c1ccc(C(=O)O)cc1)c1cc2c(cc1C)C(C)(C)CCC2(C)C` [Bexarotene]: the “vulvae per adult worm” value turned out to be 1.08.
